Laboratory results taken from doi:10.1101/2025.05.29.656827.
These are yes or no findings as the source states them, for the method shown. In cells and extracts the contact can be indirect. Some binding calls cover weakened binding; strength is not graded here.

By UniProt entry, the sequences of proteins in these tests, tags left out.
UniProt Q8VSC3: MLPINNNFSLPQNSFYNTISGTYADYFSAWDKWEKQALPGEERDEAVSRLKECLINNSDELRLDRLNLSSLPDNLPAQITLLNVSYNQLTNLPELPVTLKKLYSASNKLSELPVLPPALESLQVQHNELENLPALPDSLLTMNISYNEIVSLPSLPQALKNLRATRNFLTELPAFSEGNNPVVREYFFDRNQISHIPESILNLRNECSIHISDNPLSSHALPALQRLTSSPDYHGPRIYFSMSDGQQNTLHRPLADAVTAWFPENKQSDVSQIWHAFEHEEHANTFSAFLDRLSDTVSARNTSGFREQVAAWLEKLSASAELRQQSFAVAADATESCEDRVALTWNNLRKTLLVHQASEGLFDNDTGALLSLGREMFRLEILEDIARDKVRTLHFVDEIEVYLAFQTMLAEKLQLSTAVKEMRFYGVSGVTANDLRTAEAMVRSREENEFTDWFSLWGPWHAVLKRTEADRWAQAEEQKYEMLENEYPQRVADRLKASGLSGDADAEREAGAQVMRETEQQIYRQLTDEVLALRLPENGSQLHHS
UniProt P61960: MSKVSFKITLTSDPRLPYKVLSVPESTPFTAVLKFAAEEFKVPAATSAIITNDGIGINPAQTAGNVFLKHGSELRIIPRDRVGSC

Biological target: Myc-IpaH9.8 (pRK5Myc-IpaH9.8) (S. flexneri) (UniProt Q8VSC3)
Assay: co-IP; HEK293T co-transfected with pRK5Myc-IpaH9.8 and pCR3.1His-UFM1 (or His-UFM1 alone as control); lysis in 2% SDS, 10% glycerol, 62.5 mM Tris pH 6.8, diluted with 4 volumes of IP buffer (50 mM Tris pH 8.0, 150 mM NaCl, 1% NP-40); anti-Myc antibody and Protein A agarose

Question: Which binding does the source give for “His-UFM1 (pCR3.1His-UFM1) (from UniProt P61960 1-85)” here?
Answer: binds
